Test results as given in PubChem BioAssay AID504467 (National Center for Advancing Translational Sciences (NCATS), 2011).
The campaign covered roughly 330,000 compounds. About 7,700 (2.3%) were called active. The inconclusive results got no clear call from the source; some entries with a clear call stand among them for comparison. The call rests on the fitted dose curve; in most records, active means well fitted inhibition curve with a large enough effect; inconclusive means small, poorly fitted or top-dose-only effect, or effect the other way; inactive means flat fitted curve, though single readings scatter. Potencies beside an inconclusive call are fits to weak or partial responses and may not hold up.

Experiment: qHTS screen for small molecules that inhibit ELG1-dependent DNA repair in human embryonic kidney (HEK293T) cells expressing luciferase-tagged ELG1; further: nearly all actives have a fitted effect of over 55% in size
Conditions: HEK293T ELG1-luciferase reporter, luminescence, 16 h, DNA damage induced by 5-fluorouridine; activity change, negative = inhibition: at 46.1 µM (top of the series)
In short: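 Reporter activity after DNA damage by 5-fluorouridine is monitored. Compound-treated cells incubate 16 hr at 37 °C, then ONE-Glo is added for 30 min before luminescence reading.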
On the % scale 0 is the no-effect control and ±100 the full control effect; potency means the concentration at half of the fitted maximal effect.

| SMILES | Potency | activity change, negative = inhibition |
| --- | --- | --- |
| O=[N+]([O-])c1ccccc1OCCCN1CCOCC1 | inconclusive: 18.4 µM [activator, partial curve, poor fit] | – |
| Clc1ccc(Cn2ncc3c(NCc4cccnc4)ncnc32)cc1 | inconclusive: 23.1 µM [inhibitor, single point] | – |
| COc1ccc(S(=O)(=O)N2CCCCCC2)cc1NC(=O)c1ccccc1F | inconclusive: 0.0037 µM [inhibitor, full curve, poor fit] | – |
| Cc1cc(C)nc(SC/C=C/c2ccccc2)n1 | inconclusive: 20.6 µM [activator, single point] | – |
| CCOC(=O)c1c(C)[nH]c(C(=O)OCC(=O)NCc2ccccc2)c1C | – | inactive: 0% |
| COc1ccc(NCN2C(=O)C3C4C=CC(C4)C3C2=O)cc1 (stereo not given) | inconclusive: 20.6 µM [inhibitor, single point] | – |
| Cc1cc(C)cc(-n2cnc3cc(C(=O)O)ccc32)c1 | inconclusive: 16.4 µM [activator, partial curve, poor fit] | – |
| O=C1CC(N2CCCc3ccccc32)C(=O)N1c1ccccc1Cl (stereo not given) | – | inactive: -3.65% |
| Cc1cc(Br)cc2c(C(=O)NCC3CCCO3)cc(-c3ccccc3)nc12 (stereo not given) | inconclusive: 9.2 µM [activator, partial curve] | – |
| C(#CC1CCCC1)c1ccc2c(c1)COc1c3ccccc3nn1-2 | inconclusive: 2.31 µM [activator, partial curve] | – |
| O=C(Nc1nnc(C2CC2)o1)c1ccc(S(=O)(=O)N2CCCCC2)cc1 | – | inactive: 16.5% |
| Cc1nc(Sc2ccc(Cl)cc2)c(C#N)c(C)c1[N+](=O)[O-] | inconclusive: 11.6 µM [activator, partial curve] | – |
| Cc1ccc(NC(=O)C23CCC(C)(C(=O)[C@H]2Br)C3(C)C)cc1 (stereo not given in full) | inconclusive: 20.6 µM [inhibitor, single point] | – |
| COc1ccccc1OC1OC2COC(c3ccco3)OC2C(O)C1NC(C)=O (stereo not given) | inconclusive: 18.4 µM [activator, partial curve, poor fit] | – |
| Cc1csc(NC(=O)CSc2[nH]c(=O)ncc2C)n1 | inconclusive: 1.83 µM [activator, partial curve, poor fit] | – |
| COc1ccc(/C=C/C(=O)Nc2ccc(C)c(S(=O)(=O)N3CCOCC3)c2)cc1 | active: 20.6 µM | – |
| Cc1ccc(NC(=O)CSc2n[nH]c(=O)n2C2CC2)cc1S(=O)(=O)N1CCOCC1 | – | inactive: -5.75% |
| COc1cc(-c2nc3ccc4ccccc4c3c3c2CCC3)cc(OC)c1O | inconclusive: 20.6 µM [inhibitor, partial curve, poor fit] | – |
| COc1ccc(NC(=O)Nc2cccc([N+](=O)[O-])c2)cc1Cl | inconclusive: 29.1 µM [inhibitor, single point] | – |
| COc1ccc(NC(=S)N2CCN(C(=O)C3CCCO3)CC2)c(OC)c1 (stereo not given) | – | inactive: 10.9% |
| N#Cc1nc(-c2ccccc2)oc1NCCCn1ccnc1 | inconclusive: 32.6 µM [activator, single point] | – |
| Cn1c(-c2ccccc2)cccc1=O | inconclusive: 18.4 µM [activator, single point] | – |
| Fc1ccc(N2CN(Cc3cccnc3)CNC2=S)cc1 | – | inactive: -1.69% |

A draw from above in order of molar mass, ascending:

| SMILES | Potency | activity change, negative = inhibition |
| --- | --- | --- |
| Cc1cc(C)nc(SC/C=C/c2ccccc2)n1 | inconclusive: 20.6 µM [activator, single point] | – |
| O=[N+]([O-])c1ccccc1OCCCN1CCOCC1 | inconclusive: 18.4 µM [activator, partial curve, poor fit] | – |
| N#Cc1nc(-c2ccccc2)oc1NCCCn1ccnc1 | inconclusive: 32.6 µM [activator, single point] | – |
| Fc1ccc(N2CN(Cc3cccnc3)CNC2=S)cc1 | – | inactive: -1.69% |
| Cc1nc(Sc2ccc(Cl)cc2)c(C#N)c(C)c1[N+](=O)[O-] | inconclusive: 11.6 µM [activator, partial curve] | – |
| COc1ccc(NC(=O)Nc2cccc([N+](=O)[O-])c2)cc1Cl | inconclusive: 29.1 µM [inhibitor, single point] | – |
| Clc1ccc(Cn2ncc3c(NCc4cccnc4)ncnc32)cc1 | inconclusive: 23.1 µM [inhibitor, single point] | – |
| COc1ccc(NC(=S)N2CCN(C(=O)C3CCCO3)CC2)c(OC)c1 (stereo not given) | – | inactive: 10.9% |
| COc1ccc(/C=C/C(=O)Nc2ccc(C)c(S(=O)(=O)N3CCOCC3)c2)cc1 | active: 20.6 µM | – |

Next records follow:

| SMILES | Potency | activity change, negative = inhibition |
| --- | --- | --- |
| CC(=O)N1CCC(=NNC(=O)c2cccs2)CC1 | inconclusive: 14.6 µM [activator, partial curve] | – |
| O=C(c1cc(-c2ccncc2)nc2ccccc12)N1CCN(c2ccccn2)CC1 | inconclusive: 29.1 µM [inhibitor, single point] | – |
| CCCNC(=O)c1ccccc1NC(=O)c1ccc2c(c1)NC(=O)C(C)S2 (stereo not given) | inconclusive: 20.6 µM [inhibitor, single point] | – |
| O=C(c1ccc(Cl)c([N+](=O)[O-])c1)N(Cc1ccccc1)C1CCS(=O)(=O)C1 (stereo not given) | – | inactive: 3.66% |
| O=C(COc1ccc2c(c1)OCO2)Nc1nncs1 | inconclusive: 23.1 µM [activator, single point] | – |
| NC(=O)[C@@H]1CC2(CC(c3cccc(NC(=O)[C@@H]4CCC(=O)N4)c3)=NO2)CN1C(=O)Cc1ccc([N+](=O)[O-])cc1 (stereo not given in full) | – | inactive: -0.737% |
| CSc1ccccc1OCc1cc(C(=O)N[C@H]2CCCCNC2=O)no1 | inconclusive: 18.3 µM [activator, partial curve] | – |
| C=CCC(c1ccccc1)N(C(C)=O)c1ccco1 (stereo not given) | inconclusive: 2.31 µM [inhibitor, partial curve, poor fit] | – |
| COC(=O)c1ccccc1NC(=O)c1ccc2c(c1)CC(C)O2 (stereo not given) | inconclusive: 20.6 µM [activator, single point] | – |
| N#Cc1ccc(-c2ccco2)nc1SCC(=O)c1ccc(Cl)cc1 | – | inactive: 8.88% |
| Nc1ccc(S(=O)(=O)NNC(=O)C(=O)NNc2ccccn2)cc1 | inconclusive: 7.31 µM [activator, partial curve, poor fit] | – |
| CCOC(=O)Nc1ccc2nc(N3CCCCCC3)sc2c1 | inconclusive: 23.1 µM [activator, single point] | – |
| COc1ccc(CCNC(=O)Cc2ccc(NS(=O)(=O)c3ccc(F)cc3)cc2)cc1OC | – | inactive: -22.1% |
| O=C(O)CCC(=O)NNC(=O)CCC1CCCCC1 | – | inactive: -0.798% |
| Cc1cccc(C)c1NC(=O)CN(C)C(=O)c1cccc(NS(=O)(=O)c2ccccc2)c1 | – | inactive: 0.429% |
| O=C(COC(=O)c1ccccc1OCc1ccccc1Cl)NCC1CCCO1 (stereo not given) | inconclusive: 1.64 µM [inhibitor, partial curve, poor fit] | – |
| CCn1c(SCC(=O)Nc2cc(C)on2)nnc1-c1ccco1 | inconclusive: 18.4 µM [activator, single point] | – |
| Cc1ccc(S(=O)(=O)N2CCN(C(=O)Cc3ccc(S(=O)(=O)N4CCOCC4)s3)CC2)cc1 | – | inactive: -3.6% |
| O=C(CSc1nc(-c2ccco2)cc(C(F)(F)F)n1)Nc1ccc2c(c1)OCO2 | inconclusive: 25.9 µM [inhibitor, single point] | – |
| O=C(OCc1nnc(-c2ccccc2)o1)c1cc(S(=O)(=O)N2CCOCC2)ccc1F | inconclusive: 25.9 µM [activator, single point] | – |
| COCCCNC(=O)c1ccccc1Oc1ccccc1 | – | inactive: 0.225% |
| O=S(=O)(c1ccc(F)cc1)c1nc(-c2ccccc2)oc1N1CCOCC1 | – | inactive: -0.834% |
